In general, IC50 refers to the point on the concentration scale where inhibition reaches its midpoint.

The subject of the assay is A2780 cells. Briefly: MTT cytotoxicity assay in A2780 cells. The following applies: 72 h. It counts as cell-based. How it is done:
Human prostate cancer cell line PC3 and DU145 were procured from the American type culture collection (ATCC). Ovarian cancer A2780 cells were obtained from Prof, Robert Brown, Imperial College London. […] Cells were passed every 3 to 4 days and restarted from frozen stocks upon reaching 20 passages.
PC3, A2780, or A2780/CP70 cells (2000 cells/well/100 μL) were seeded on a 96-well plate in 100 μL of desired medium and incubated for 24 h. After 24 h, media was removed and fresh media was added. The cells were treated with different constructs at varying concentrations and incubated for 72 h at 37° C. in 5% CO2. The cells were then treated with 20 μL of MTT (5 mg/mL in PBS) for 5 h. The medium was removed, the cells were lysed with 100 μL of DMSO, and the absorbance of the purple formazan was recorded at 550 nm using a Bio-Tek Synergy HT microplate reader. The background absorbance for each well was measured at 800 nm. Each well was performed in triplicate. […] Cells were grown for 7 days in high glucose medium prior to the MTT experiment. Cytotoxicity was expressed as mean percentage increase relative to the unexposed control±SD. Control values were set at 0% cytotoxicity or 100% cell viability.
(Tetrazolium assays rely on reduction of a dye to a coloured formazan, in cell work by metabolically active cells.)

On to `N.N.[Cl][Pt][Cl]` [Cisplatin, cis-diamminedichloridoplatinum(II)], for which the IC50 came to 560 ± 80 nM.

For the origin of these results see patent US10457700B2, “Platinum prodrugs and methods of making and using thereof” (UNIVERSITY OF GEORGIA RESEARCH FOUNDATION, INC., priority 2015, dated 2019).
